# Data taken from paper PMC12040169 (PLOS Biology, 2025).
# Some of the results follow.
# Tested on: T1, CTL2-GFP (C. trachomatis L2/434/Bu, GFP-expressing)
# T1 construct: L2/434/Bu, GFP-expressing
# Parameters: species or system HeLa; Intracellular C. trachomatis growth in HeLa cells, bulk GFP fluorescence relative to DMSO
# Conditions: bulk GFP, single well; 28.5 h, 10 µM; inhibitor
row,Structure (SMILES),% of control remaining
1,CC(=O)c1cn(CCC(=O)NC2CCCOC2)c2ccccc12 (stereo not drawn) [CBK282515],88.7849%
2,Cc1ccsc1CN(Cc1nccn1C)CC(C)O (stereo not drawn) [CBK282976],120.722%
3,C=CCOC(=O)C1=C(C)N=C2SCCC(=O)N2C1c1ccc(SC)cc1 (stereo not drawn) [CBK073405],94.8155%
4,COc1cc(NC(=O)c2cc3c4c(sc3nc2N)CN(C)CC4)c(OC)c(OC)c1 [CBK269597],142.707%
5,Cc1nc2ccccn2c1CN1CCC(N2CCCC2)CC1 [CBK281730],94.545%
6,COc1nccnc1OC1CCN(CCc2ccc(F)cc2)CC1 [CBK084259],98.8057%
7,Cc1cc(C)n2c(SCc3ccccc3)nnc2n1 [CBK025780],145.941%
8,c1coc(CNc2cncc(-c3ccc4c(c3)OCO4)n2)c1 [CBK065930],140.776%
9,COc1ccc(-c2cc(C(=O)NCc3ccc4c(c3)OCO4)cnc2-c2ccccc2)cn1 [CBK037571],143.823%
10,NC(=O)CN1CCC(C(=O)c2ccc(F)cc2)CC1 [CBK149130],131.045%
11,C=C(C)CN1CCN(C(=O)c2cc3cccc(OC)c3oc2=O)CC1 [CBK269211],135.471%
12,COC(=O)c1ccc(NS(=O)(=O)c2cccc3cccnc23)cc1 [CBK028694],117.121%
13,Fc1cccc2sc(Nc3nnc(-c4ccco4)o3)nc12 [CBK287480],144.941%
14,Nc1ncc(-c2ccoc2)nc1NCc1ccco1 [CBK063652],137.04%
15,COCCNc1nc2c(c(N3CCC(C#N)CC3)n1)CCNCC2 [CBK307706],141.349%
16,Fc1ccc(CNCCN2CCOCC2)cc1 [CBK278192C],110.727%
17,CCN1CC2(CCN(CCCCC3NC(=O)NC3=O)CC2)c2ccccc21 (stereo not drawn) [CBK131489],55.2352%
18,CCN(Cc1ccncc1)C(=O)NC(C)c1ccccc1 (stereo not drawn) [CBK155156],115.902%
19,COC(=O)N1CC2(CCCCC2NCCC(F)(F)F)c2ccccc21 (stereo not drawn) [CBK083539T],101.871%
20,CCn1ccnc1CN1CCOC(Cc2ccccc2Cl)C1 (stereo not drawn) [CBK306625],80.315%
21,O=C(NCc1ccccn1)c1cncc(Br)c1 [CBK265226],118.244%
22,CC(C)(CC(=O)O)CC(=O)Nc1cc(S(=O)(=O)N2CCCC2)ccc1Cl [CBK296702],153.674%
23,Nc1cc2cccnc2nc1-c1ccncc1 [CBK067601],124.985%
24,C=CCNc1nccnc1-c1ccc(C(C)=O)s1 [CBK037052],176.289%

# 5 entries from above, arranged by formula weight, high to low.
row,Structure (SMILES),% of control remaining
6,COc1nccnc1OC1CCN(CCc2ccc(F)cc2)CC1 [CBK084259],98.8057%
13,Fc1cccc2sc(Nc3nnc(-c4ccco4)o3)nc12 [CBK287480],144.941%
18,CCN(Cc1ccncc1)C(=O)NC(C)c1ccccc1 (stereo not drawn) [CBK155156],115.902%
7,Cc1cc(C)n2c(SCc3ccccc3)nnc2n1 [CBK025780],145.941%
23,Nc1cc2cccnc2nc1-c1ccncc1 [CBK067601],124.985%
